Measured values taken from PMC8764100.
These are yes or no findings as the source states them, for the method shown. In cells and extracts the contact can be indirect. Some entries that bind do so weakly or less than the wild type.

By UniProt entry, the sequences of proteins in these tests, tags left out.
UniProt Q9UQE7: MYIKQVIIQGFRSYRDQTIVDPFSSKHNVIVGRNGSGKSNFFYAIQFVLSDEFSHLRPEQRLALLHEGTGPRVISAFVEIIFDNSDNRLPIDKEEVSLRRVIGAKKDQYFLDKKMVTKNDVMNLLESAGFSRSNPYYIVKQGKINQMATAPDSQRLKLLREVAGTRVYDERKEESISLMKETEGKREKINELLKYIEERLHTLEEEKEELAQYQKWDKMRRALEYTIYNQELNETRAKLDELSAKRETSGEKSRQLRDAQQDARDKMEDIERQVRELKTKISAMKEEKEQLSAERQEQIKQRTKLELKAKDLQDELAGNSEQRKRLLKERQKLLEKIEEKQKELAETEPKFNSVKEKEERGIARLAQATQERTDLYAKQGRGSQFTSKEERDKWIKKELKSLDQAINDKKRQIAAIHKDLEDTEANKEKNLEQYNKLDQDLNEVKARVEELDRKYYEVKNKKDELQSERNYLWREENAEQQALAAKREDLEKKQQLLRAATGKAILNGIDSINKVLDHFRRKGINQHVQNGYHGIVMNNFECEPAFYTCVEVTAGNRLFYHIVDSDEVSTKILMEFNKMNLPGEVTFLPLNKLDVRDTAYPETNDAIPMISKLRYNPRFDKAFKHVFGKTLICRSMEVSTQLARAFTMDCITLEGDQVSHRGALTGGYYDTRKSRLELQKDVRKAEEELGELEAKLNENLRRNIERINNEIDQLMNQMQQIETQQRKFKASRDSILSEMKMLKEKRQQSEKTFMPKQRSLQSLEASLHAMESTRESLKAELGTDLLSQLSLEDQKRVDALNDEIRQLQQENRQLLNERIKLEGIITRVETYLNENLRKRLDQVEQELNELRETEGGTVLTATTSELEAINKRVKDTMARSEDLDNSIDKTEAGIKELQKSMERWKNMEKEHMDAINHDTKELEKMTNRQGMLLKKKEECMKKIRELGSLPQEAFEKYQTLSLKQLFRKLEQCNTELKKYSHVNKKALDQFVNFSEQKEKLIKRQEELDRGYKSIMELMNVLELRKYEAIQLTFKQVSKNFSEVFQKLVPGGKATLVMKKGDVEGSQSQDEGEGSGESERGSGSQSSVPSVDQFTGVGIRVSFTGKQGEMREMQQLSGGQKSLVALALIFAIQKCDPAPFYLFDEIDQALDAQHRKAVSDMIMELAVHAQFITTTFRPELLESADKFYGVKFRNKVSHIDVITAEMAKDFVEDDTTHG
UniProt P09874: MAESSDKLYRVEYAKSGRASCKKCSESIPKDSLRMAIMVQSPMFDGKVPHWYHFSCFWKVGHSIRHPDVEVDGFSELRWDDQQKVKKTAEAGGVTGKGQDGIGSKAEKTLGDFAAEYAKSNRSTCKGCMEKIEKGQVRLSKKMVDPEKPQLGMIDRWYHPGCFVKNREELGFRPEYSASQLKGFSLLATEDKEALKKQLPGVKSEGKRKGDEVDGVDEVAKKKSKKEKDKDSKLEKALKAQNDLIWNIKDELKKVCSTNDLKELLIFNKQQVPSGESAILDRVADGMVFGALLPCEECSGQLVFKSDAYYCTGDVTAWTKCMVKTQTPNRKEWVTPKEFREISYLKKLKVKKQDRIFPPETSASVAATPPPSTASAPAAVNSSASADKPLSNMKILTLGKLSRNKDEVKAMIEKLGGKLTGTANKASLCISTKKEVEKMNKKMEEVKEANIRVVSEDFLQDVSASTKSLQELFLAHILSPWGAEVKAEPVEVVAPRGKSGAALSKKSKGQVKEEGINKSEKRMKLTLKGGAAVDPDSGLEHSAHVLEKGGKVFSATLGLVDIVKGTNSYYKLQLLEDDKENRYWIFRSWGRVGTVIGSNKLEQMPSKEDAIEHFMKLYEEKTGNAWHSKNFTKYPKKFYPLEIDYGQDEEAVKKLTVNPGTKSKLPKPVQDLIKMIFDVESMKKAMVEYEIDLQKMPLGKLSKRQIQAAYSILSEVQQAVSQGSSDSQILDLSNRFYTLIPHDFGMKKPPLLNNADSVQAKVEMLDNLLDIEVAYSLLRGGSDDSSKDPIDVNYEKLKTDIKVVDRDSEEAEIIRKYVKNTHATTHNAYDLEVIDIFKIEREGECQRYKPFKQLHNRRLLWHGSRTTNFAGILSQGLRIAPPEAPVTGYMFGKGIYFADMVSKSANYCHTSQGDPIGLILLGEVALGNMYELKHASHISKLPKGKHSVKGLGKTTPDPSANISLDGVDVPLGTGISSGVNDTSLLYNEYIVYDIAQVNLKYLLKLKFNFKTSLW

Biological target: SMC3 component of cohesin (human (endogenous in Mutu-LCL)) (UniProt Q9UQE7)
Assay: co-IP; SMC3 antibody (10 ug) or normal rabbit IgG, protein A magnetic beads, lysate of 10 million LCLs in RIPA buffer, with or without 2.5 uM olaparib for 72 h; washed three times in RIPA; immunoblot for SMC3 and PARP1; three biological replicates

For “Poly [ADP-ribose] polymerase 1 (PARP1) (from UniProt P09874 1-1014)”, the binding was “binds”.
